Patent US20200190176A1 (VERITAS THERAPEUTICS, published 2020)
These are yes or no findings as the source states them, for the method shown. Some entries that bind do so weakly or less than the wild type.

How the values were obtained:
[1] = target: T1, recombinant human FGL2 (human, UniProt Q14314 30-439, limits assumed); experiment: ELISA; FACS; IHC; Western blot
T1 construct: also called hFGL2; FGL2/fibroleukin
T1 sequence (looked up): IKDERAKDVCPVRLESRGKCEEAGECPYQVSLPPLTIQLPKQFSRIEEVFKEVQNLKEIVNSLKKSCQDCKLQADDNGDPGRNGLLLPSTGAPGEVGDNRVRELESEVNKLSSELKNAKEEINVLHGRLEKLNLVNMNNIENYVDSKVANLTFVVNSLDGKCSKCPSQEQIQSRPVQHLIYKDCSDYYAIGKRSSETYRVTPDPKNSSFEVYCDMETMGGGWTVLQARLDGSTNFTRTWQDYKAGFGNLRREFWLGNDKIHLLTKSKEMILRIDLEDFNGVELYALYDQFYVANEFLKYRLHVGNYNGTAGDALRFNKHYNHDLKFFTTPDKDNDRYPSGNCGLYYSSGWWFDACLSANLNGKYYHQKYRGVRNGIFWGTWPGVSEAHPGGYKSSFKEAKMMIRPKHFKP

[2] = target: T2, recombinant mouse FGL2 (mouse, UniProt P12804 27-432, limits assumed); experiment: SPR, 10 nM recombinant mouse FGL2
T2 construct: native mouse FGL2 is said to exist as an oligomer; also called murine recombinant FGL2
T2 sequence (looked up): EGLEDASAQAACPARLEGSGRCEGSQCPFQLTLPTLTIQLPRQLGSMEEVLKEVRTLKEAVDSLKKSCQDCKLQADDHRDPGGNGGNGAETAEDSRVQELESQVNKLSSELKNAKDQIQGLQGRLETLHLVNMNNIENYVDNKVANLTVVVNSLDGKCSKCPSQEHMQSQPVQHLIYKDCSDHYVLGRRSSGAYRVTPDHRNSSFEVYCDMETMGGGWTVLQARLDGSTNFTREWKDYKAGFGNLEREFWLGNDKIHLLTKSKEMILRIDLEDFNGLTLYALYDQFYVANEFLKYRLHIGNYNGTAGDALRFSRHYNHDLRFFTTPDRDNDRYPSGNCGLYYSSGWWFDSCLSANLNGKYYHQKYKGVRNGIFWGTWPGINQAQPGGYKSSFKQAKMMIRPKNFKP

[3] = target: T1, recombinant human FGL2; experiment: antigen microarray, IgG reactivity (MFI)
[4] = target: T1, recombinant human FGL2; experiment: SPR, 0.625 to 10 nM recombinant human FGL2
[5] = target: T1, recombinant human FGL2; experiment: antigen microarray probed with 9D8, fluorescent secondary antibody
[6] = target: T1, recombinant human FGL2; experiment: antigen microarray probed with 9D8 and a fluorescent secondary antibody, IgG reactivity as MFI
[7] = target: T1, recombinant human FGL2; experiment: SPR (Biacore 3000), 9D8 captured by goat anti-mouse Fc, recombinant human FGL2 flowed as analyte
[8] = target: T2, recombinant mouse FGL2; experiment: SPR (Biacore 3000), 9D8 captured by goat anti-mouse Fc, recombinant mouse FGL2 flowed as analyte

Measured: binding

B1: anti-FGL2 monoclonal antibody 9D8 (antibody, mouse IgG1, kappa, V domains shown)
VH: EVQLQQSGAELVKPGASVQLSCTASGFNIKDTYIHWVKQRPEQGLEWIGRIDPEDGNTKYDPKFQAKATITADTFSNTAYLQLSSLTSEDTAVYYCARSYGNAYWGQGTLVTVSA
VL: DIVLTQSPASLAVSLGQRATISCRASQSVSTSRYTYMHWYQQKPGQPPKLLIKYASNLDSGVPARFSGSGSGTDFTLNIHPVQEEDTATYYCQHSWEIWAFGGGTKLEIKR
notes: Mouse hybridoma antibody purified from ascites; isotype-matched control was IgG1; here built without leader from variable region plus constant region; also called clone 9D8; antibody to FGL2 (9D8)
binds: [1] | [2] | [3] | [4] | [5] | [6] | [7] | [8]
